Results from the supplement of paper PMC8728848.
Some of the results follow.

Legend:
Test in all cases: glycan array binding signal (z-score within array); higher = stronger binding
Conditions in all cases: glycan notation: IUPAC condensed, linker removed
Kdn(a2-3)Gal(b1-3)GlcNAc = molecular target: Kdn(a2-3)Gal(b1-3)GlcNAc
How it was run: (§1)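 From the Consortium for Functional Glycomics database, 3228 arrays were curated, keeping only those whose protein sequence was available. Binding is given as a within-array Z-score averaged across arrays sharing a protein sequence and across linkers. Negative Z-scores can be read as non-binding.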

Kdn(a2-3)Gal(b1-4)Glc = molecular target: Kdn(a2-3)Gal(b1-4)Glc
How it was run: as §1

Kdn(a2-3)Gal(b1-4)GlcNAc = molecular target: Kdn(a2-3)Gal(b1-4)GlcNAc
How it was run: as §1

[1] = molecular target: Kdn(a2-3)Gal(b1-4)[Fuc(a1-3)]GlcNAc
How it was run: as §1

Kdn(a2-6)Gal(b1-4)GlcNAc = molecular target: Kdn(a2-6)Gal(b1-4)GlcNAc
How it was run: as §1

[2] = molecular target: Man(a1-2)Man(a1-2)Man(a1-3)Man
How it was run: as §1

[3] = molecular target: Man(a1-2)Man(a1-2)Man(a1-6)[Man(a1-3)]Man
How it was run: as §1

Man(a1-2)Man(a1-3)Man = molecular target: Man(a1-2)Man(a1-3)Man
How it was run: as §1

[4] = molecular target: Man(a1-2)Man(a1-3)[Man(a1-2)Man(a1-6)]Man
How it was run: as §1

[5] = molecular target: Man(a1-2)Man(a1-3)[Man(a1-2)Man(a1-6)]Man(a1-6)[Man(a1-2)Man(a1-2)Man(a1-3)]Man
How it was run: as §1

[6] = molecular target: Man(a1-2)Man(a1-3)[Man(a1-2)Man(a1-6)]Man(a1-6)[Man(a1-2)Man(a1-2)Man(a1-3)]Man(b1-4)GlcNAc(b1-4)GlcNAc
How it was run: as §1

[7] = molecular target: Man(a1-2)Man(a1-3)[Man(a1-6)]Man(a1-6)[Man(a1-2)Man(a1-3)]Man(b1-4)GlcNAc(b1-4)GlcNAc
How it was run: as §1

[8] = molecular target: Man(a1-2)Man(a1-6)[Man(a1-3)]Man(a1-6)[Man(a1-2)Man(a1-2)Man(a1-3)]Man
How it was run: as §1

[9] = molecular target: Man(a1-2)Man(a1-6)[Man(a1-3)]Man(a1-6)[Man(a1-2)Man(a1-2)Man(a1-3)]Man(b1-4)GlcNAc(b1-4)GlcNAc
How it was run: as §1

Man(a1-3)[Man(a1-6)]Man = molecular target: Man(a1-3)[Man(a1-6)]Man
How it was run: as §1

[10] = molecular target: Man(a1-3)[Man(a1-6)]Man(a1-6)[Man(a1-2)Man(a1-3)]Man(b1-4)GlcNAc(b1-4)GlcNAc
How it was run: as §1

[11] = molecular target: Man(a1-3)[Man(a1-6)]Man(a1-6)[Man(a1-3)]Man
How it was run: as §1

[12] = molecular target: Man(a1-3)[Man(a1-6)]Man(a1-6)[Man(a1-3)]Man(b1-4)GlcNAc(b1-4)GlcNAc
How it was run: as §1

[13] = molecular target: Man(a1-3)[Man(a1-6)]Man(b1-4)GlcNAc(b1-4)GlcNAc
How it was run: as §1

[14] = molecular target: Man(a1-3)[Man(a1-6)]Man(b1-4)GlcNAc(b1-4)[Fuc(a1-6)]GlcNAc
How it was run: as §1

Man(a1-6)Man = molecular target: Man(a1-6)Man
How it was run: as §1

Man(b1-4)GlcNAc = molecular target: Man(b1-4)GlcNAc
How it was run: as §1

MurNAc(b1-4)GlcNAc = molecular target: MurNAc(b1-4)GlcNAc
How it was run: as §1

Neu5Ac(a2-3)Gal = molecular target: Neu5Ac(a2-3)Gal
How it was run: as §1

[15] = molecular target: Neu5Ac(a2-3)Gal(b1-3)GalNAc
How it was run: as §1

[16] = molecular target: Neu5Ac(a2-3)Gal(b1-3)GalNAc(b1-3)Gal(a1-4)Gal(b1-4)Glc
How it was run: as §1

[17] = molecular target: Neu5Ac(a2-3)Gal(b1-3)GalNAc(b1-4)Gal(b1-4)Glc
How it was run: as §1

[18] = molecular target: Neu5Ac(a2-3)Gal(b1-3)GalNAc(b1-4)[Neu5Ac(a2-3)]Gal(b1-4)Glc
How it was run: as §1

[19] = molecular target: Neu5Ac(a2-3)Gal(b1-3)GalNAc(b1-4)[Neu5Ac(a2-8)Neu5Ac(a2-3)]Gal(b1-4)Glc
How it was run: as §1

[20] = molecular target: Neu5Ac(a2-3)Gal(b1-3)GalNAc6S
How it was run: as §1

[21] = molecular target: Neu5Ac(a2-3)Gal(b1-3)GlcNAc
How it was run: as §1

[22] = molecular target: Neu5Ac(a2-3)Gal(b1-3)GlcNAc(b1-2)Man
How it was run: as §1

[23] = molecular target: Neu5Ac(a2-3)Gal(b1-3)GlcNAc(b1-2)Man(a1-3)[GlcNAc(b1-4)][Neu5Ac(a2-3)Gal(b1-3)GlcNAc(b1-2)Man(a1-6)]Man(b1-4)GlcNAc(b1-4)GlcNAc
How it was run: as §1

[24] = molecular target: Neu5Ac(a2-3)Gal(b1-3)GlcNAc(b1-2)Man(a1-3)[Neu5Ac(a2-3)Gal(b1-3)GlcNAc(b1-2)Man(a1-6)]Man(b1-4)GlcNAc(b1-4)GlcNAc
How it was run: as §1

[25] = molecular target: Neu5Ac(a2-3)Gal(b1-3)GlcNAc(b1-2)[Neu5Ac(a2-3)Gal(b1-3)GlcNAc(b1-4)]Man(a1-6)[Neu5Ac(a2-3)Gal(b1-3)GlcNAc(b1-2)Man(a1-3)]Man(b1-4)GlcNAc(b1-4)GlcNAc
How it was run: as §1

[26] = molecular target: Neu5Ac(a2-3)Gal(b1-3)GlcNAc(b1-3)Gal(b1-3)GlcNAc
How it was run: as §1

[27] = molecular target: Neu5Ac(a2-3)Gal(b1-3)GlcNAc(b1-3)Gal(b1-4)GlcNAc
How it was run: as §1

[28] = molecular target: Neu5Ac(a2-3)Gal(b1-3)GlcNAc(b1-3)GalNAc
How it was run: as §1

B1: ERGIC1-EDTA (Homo sapiens), Q969X5 (protein)
chain: MKFLVNVALVFMVVYISYIYAAAHMHHHHHHDYDIPTTENLYFQGSEVVNELYVDDPDKDSGGKIDVSLNISLPNLHCELVGLDIQDEMGRHEVGHIDNSMKIPLNNGAGCRFEGQFSINKVPGNFHVSTHSATAQPQNPDMTHVIHKLSFGDTLQVQNIHGAFNALGGADRLTSNPLASHDYILKIVPTVYEDKSGKQRYSYQYTVANKEYVAYSHTGRIIPAIWFRYDLSPITVKYTE
glycan array binding signal (z-score) (Kdn(a2-3)Gal(b1-3)GlcNAc): -0.154 | glycan array binding signal (z-score) (Kdn(a2-3)Gal(b1-4)Glc): 0.11 | glycan array binding signal (z-score) (Kdn(a2-3)Gal(b1-4)GlcNAc): -0.433 | glycan array binding signal (z-score) [1]: 0.586 | glycan array binding signal (z-score) (Kdn(a2-6)Gal(b1-4)GlcNAc): 1.73 | glycan array binding signal (z-score) [2]: -0.557 | glycan array binding signal (z-score) [3]: -0.459 | glycan array binding signal (z-score) (Man(a1-2)Man(a1-3)Man): -0.345 | glycan array binding signal (z-score) [4]: -0.556 | glycan array binding signal (z-score) [5]: 0.464 | glycan array binding signal (z-score) [6]: -0.2 | glycan array binding signal (z-score) [7]: -0.931 | glycan array binding signal (z-score) [8]: 0.324 | glycan array binding signal (z-score) [9]: -0.516 | glycan array binding signal (z-score) (Man(a1-3)[Man(a1-6)]Man): -0.591 | glycan array binding signal (z-score) [10]: -0.888 | glycan array binding signal (z-score) [11]: 0.494 | glycan array binding signal (z-score) [12]: 0.189 | glycan array binding signal (z-score) [13]: 0.178 | glycan array binding signal (z-score) [14]: 2.1 | glycan array binding signal (z-score) (Man(a1-6)Man): 0.405 | glycan array binding signal (z-score) (Man(b1-4)GlcNAc): 0.059 | glycan array binding signal (z-score) (MurNAc(b1-4)GlcNAc): -0.587 | glycan array binding signal (z-score) (Neu5Ac(a2-3)Gal): 1.35 | glycan array binding signal (z-score) [15]: -0.178 | glycan array binding signal (z-score) [16]: 0.3 | glycan array binding signal (z-score) [17]: -0.913 | glycan array binding signal (z-score) [18]: -0.139 | glycan array binding signal (z-score) [19]: -0.443 | glycan array binding signal (z-score) [20]: -1.07 | glycan array binding signal (z-score) [21]: -0.199 | glycan array binding signal (z-score) [22]: -0.251 | glycan array binding signal (z-score) [23]: 0.192 | glycan array binding signal (z-score) [24]: 0.634 | glycan array binding signal (z-score) [25]: 0.458 | glycan array binding signal (z-score) [26]: -1.4 | glycan array binding signal (z-score) [27]: 0.249 | glycan array binding signal (z-score) [28]: 0.617
